Measured values from paper doi:10.1101/2020.11.14.382416.

The chains behind the UniProt entries cited, without tags or fusion partners.
UniProt Q9Z148: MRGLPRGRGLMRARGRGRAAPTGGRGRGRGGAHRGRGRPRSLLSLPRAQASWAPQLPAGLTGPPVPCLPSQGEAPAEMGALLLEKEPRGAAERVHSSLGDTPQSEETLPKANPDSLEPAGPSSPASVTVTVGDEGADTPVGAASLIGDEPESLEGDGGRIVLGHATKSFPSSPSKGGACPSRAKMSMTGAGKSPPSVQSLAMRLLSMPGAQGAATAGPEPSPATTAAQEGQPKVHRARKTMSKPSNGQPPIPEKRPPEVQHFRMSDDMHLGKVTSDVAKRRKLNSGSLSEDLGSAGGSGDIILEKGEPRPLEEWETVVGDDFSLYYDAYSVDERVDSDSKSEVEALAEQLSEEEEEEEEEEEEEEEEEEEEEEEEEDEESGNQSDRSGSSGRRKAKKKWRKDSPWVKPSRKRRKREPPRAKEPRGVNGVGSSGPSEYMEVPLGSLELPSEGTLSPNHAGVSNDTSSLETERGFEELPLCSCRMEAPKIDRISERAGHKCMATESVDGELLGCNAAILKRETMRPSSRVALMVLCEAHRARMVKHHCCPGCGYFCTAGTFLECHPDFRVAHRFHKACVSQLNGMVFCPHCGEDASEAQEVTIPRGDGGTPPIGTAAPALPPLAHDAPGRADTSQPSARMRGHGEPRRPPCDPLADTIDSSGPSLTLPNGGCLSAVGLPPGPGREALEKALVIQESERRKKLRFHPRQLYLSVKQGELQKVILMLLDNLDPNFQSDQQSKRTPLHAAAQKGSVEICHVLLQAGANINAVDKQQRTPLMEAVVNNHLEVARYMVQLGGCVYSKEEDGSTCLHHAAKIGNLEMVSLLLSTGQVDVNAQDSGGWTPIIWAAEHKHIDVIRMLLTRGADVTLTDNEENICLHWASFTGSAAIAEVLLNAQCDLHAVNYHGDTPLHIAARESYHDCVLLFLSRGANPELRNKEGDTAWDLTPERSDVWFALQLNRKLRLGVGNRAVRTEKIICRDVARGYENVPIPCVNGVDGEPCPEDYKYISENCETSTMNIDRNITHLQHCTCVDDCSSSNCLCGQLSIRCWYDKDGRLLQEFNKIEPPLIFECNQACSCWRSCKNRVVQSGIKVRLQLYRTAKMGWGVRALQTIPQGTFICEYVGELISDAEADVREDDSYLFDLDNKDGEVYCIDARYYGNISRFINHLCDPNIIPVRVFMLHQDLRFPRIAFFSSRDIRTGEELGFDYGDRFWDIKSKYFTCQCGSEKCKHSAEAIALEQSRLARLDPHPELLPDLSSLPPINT
UniProt Q7JJ13: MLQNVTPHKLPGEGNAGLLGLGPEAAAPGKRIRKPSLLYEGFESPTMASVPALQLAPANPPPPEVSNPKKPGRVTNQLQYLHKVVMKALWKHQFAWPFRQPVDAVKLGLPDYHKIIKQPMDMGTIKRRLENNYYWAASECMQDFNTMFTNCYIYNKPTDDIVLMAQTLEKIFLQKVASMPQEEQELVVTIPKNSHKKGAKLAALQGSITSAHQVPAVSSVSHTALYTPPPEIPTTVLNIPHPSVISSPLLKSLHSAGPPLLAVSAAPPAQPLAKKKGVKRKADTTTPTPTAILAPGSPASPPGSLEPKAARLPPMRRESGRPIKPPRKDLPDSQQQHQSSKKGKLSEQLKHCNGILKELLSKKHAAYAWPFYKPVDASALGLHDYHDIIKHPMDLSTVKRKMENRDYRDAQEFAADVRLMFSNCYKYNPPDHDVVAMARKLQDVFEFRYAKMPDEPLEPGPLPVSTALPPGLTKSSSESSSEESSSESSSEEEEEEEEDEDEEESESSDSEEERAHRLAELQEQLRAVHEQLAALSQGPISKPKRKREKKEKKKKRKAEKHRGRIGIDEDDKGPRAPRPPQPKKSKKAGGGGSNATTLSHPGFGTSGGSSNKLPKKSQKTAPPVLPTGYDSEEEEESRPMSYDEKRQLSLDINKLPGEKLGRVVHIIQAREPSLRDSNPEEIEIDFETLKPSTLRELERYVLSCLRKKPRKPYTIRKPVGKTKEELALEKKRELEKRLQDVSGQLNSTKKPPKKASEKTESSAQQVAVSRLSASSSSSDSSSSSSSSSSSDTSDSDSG
UniProt P45481: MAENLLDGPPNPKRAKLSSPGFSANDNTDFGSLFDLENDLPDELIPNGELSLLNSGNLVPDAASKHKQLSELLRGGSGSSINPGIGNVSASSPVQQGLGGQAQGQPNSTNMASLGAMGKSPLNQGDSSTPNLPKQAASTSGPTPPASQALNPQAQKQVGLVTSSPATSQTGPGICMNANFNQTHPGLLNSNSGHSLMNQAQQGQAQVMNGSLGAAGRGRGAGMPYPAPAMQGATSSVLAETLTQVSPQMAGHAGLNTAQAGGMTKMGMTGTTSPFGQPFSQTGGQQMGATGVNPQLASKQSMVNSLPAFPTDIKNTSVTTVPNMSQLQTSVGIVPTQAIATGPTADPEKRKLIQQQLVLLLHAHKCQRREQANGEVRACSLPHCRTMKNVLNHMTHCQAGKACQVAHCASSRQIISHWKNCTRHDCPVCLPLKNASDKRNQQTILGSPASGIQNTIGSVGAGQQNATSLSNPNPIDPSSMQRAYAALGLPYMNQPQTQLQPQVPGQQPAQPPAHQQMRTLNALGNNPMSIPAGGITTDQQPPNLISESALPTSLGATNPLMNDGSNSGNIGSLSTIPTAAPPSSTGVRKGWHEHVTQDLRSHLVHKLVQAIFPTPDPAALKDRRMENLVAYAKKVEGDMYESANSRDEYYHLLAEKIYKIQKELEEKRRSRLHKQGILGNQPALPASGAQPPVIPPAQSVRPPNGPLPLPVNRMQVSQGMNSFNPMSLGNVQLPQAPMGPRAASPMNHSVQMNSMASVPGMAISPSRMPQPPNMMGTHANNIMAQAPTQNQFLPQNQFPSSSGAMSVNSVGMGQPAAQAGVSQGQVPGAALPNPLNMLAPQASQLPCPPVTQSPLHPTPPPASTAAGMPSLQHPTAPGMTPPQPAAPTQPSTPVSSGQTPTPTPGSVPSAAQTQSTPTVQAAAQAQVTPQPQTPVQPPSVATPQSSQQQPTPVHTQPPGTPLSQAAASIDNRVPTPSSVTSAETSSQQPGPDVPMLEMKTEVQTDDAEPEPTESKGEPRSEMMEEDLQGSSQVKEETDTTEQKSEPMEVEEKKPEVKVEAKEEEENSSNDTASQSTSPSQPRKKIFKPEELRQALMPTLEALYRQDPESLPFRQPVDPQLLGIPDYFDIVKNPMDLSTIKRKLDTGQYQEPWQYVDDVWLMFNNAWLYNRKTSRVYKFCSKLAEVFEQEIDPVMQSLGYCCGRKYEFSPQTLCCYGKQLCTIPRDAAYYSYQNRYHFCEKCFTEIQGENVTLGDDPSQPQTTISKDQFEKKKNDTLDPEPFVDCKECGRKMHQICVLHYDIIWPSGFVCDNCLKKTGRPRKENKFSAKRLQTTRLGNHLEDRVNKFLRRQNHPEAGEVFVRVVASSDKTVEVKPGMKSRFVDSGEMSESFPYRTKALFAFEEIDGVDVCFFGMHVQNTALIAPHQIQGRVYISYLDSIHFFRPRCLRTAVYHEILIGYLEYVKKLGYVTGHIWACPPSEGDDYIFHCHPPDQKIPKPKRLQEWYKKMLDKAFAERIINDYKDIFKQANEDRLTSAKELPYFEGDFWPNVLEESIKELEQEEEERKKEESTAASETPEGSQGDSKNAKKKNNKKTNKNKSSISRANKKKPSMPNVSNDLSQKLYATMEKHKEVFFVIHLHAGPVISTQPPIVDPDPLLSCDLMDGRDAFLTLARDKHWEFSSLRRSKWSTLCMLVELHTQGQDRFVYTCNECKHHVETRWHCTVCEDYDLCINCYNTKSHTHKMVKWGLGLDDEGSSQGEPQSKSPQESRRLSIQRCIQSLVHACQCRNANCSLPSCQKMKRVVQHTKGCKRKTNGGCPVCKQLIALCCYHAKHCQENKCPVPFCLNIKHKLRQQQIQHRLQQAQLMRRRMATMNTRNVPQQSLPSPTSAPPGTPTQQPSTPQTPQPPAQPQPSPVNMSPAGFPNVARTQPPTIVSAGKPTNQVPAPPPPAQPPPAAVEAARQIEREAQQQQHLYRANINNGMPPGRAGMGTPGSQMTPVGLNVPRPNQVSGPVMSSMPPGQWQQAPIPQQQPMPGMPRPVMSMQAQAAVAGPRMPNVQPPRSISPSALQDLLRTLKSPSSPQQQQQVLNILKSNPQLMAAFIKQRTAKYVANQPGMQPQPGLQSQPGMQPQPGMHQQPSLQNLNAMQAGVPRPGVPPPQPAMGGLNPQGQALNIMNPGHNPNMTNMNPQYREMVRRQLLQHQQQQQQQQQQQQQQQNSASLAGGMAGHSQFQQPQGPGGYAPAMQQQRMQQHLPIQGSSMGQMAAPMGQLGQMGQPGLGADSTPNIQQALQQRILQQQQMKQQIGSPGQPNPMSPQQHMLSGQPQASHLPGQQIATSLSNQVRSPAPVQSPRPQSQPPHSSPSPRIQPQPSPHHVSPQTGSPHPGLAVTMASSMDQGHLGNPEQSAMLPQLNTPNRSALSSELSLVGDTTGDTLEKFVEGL
UniProt Q921E6: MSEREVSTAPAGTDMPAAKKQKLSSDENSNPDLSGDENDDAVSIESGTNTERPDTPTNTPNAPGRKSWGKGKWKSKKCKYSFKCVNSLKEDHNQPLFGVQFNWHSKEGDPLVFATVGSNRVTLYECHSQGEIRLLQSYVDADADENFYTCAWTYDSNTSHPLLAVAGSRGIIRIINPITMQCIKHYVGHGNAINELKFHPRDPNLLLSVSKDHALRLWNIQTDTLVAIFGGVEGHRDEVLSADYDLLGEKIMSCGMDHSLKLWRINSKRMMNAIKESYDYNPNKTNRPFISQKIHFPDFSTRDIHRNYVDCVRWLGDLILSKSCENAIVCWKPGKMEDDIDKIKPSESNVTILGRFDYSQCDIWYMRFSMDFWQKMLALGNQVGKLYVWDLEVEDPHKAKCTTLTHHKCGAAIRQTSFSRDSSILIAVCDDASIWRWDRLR
UniProt Q80U70: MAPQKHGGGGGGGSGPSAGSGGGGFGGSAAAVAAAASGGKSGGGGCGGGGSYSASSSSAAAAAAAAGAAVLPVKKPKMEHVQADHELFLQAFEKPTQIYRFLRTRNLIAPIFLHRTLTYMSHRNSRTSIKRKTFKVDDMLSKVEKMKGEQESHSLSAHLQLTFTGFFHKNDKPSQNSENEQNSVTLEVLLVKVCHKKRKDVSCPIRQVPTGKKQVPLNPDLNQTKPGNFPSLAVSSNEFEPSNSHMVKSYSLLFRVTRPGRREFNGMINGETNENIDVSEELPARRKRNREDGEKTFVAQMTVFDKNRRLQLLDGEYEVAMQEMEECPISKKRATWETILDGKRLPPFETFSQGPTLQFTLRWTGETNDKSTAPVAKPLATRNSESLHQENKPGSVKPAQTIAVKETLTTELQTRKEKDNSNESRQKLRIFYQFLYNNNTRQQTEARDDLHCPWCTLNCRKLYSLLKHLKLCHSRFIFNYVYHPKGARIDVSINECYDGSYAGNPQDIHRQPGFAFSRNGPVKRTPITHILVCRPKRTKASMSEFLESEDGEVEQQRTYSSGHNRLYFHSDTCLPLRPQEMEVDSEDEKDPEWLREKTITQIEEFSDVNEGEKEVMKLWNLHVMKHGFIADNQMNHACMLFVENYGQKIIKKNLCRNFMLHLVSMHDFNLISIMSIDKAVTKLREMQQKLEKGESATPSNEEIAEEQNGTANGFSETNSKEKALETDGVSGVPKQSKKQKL
UniProt Q61188: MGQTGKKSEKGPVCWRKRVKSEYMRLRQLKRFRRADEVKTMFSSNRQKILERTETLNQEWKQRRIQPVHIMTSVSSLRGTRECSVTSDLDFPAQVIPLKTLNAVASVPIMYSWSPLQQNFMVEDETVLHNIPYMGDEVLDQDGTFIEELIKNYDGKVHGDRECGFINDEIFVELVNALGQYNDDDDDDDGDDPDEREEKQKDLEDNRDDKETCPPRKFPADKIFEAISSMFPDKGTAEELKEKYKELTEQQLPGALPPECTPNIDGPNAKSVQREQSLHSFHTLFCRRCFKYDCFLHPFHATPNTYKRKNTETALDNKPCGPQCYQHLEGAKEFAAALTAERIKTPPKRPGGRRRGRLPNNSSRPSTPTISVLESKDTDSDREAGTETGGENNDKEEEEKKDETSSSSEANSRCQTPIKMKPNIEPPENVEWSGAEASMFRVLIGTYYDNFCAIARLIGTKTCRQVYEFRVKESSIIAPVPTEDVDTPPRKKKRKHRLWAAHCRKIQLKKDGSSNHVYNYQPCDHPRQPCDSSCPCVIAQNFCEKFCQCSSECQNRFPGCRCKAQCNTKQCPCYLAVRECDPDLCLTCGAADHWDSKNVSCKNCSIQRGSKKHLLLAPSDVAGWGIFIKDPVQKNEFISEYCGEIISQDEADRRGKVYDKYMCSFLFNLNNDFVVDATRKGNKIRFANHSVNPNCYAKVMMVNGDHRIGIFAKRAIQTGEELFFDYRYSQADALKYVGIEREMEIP

target: G9a (EHMT2), endogenous, captured by the biotinylated G9a inhibitor UNC0965 (mouse (endogenous in Raw 264.7)) (UniProt Q9Z148); assay: affinity purification with mass spectrometry

Molecule | binding
BRD2 (from UniProt Q7JJ13 1-798) | binds
CREBBP (from UniProt P45481 1-2441) | binds
EED (from UniProt Q921E6 1-441) | binds
SMARCA2 (from UniProt Q6DIC0 1-1577) | binds
SMARCA4 (from UniProt Q3TKT4 1-1613) | binds
SUZ12 (from UniProt Q80U70 1-741) | binds
histone methyltransferase Ezh2 (Enhancer of zeste homolog 2) (from UniProt Q61188 1-746) (enzyme) | binds

target: G9a (EHMT2), endogenous, captured by the biotinylated G9a inhibitor UNC0965 (mouse (endogenous in Raw 264.7)) (UniProt Q9Z148); assay: affinity purification with mass spectrometry; remark: another data set of the same source

Molecule | binding
splicing factor SF3B1 (protein, UniProt Q99NB9 1-1304) MAKIAKTHEDIEAQIREIQGKKAALDEAQGVGLDSTGYYDQEIYGGSDSRFAGYVTSIAATELEDDDDDYSSSTSLLGQKKPGYHAPVALLNDIPQSTEQYDPFAEHRPPKIADREDEYKKHRRTMIISPERLDPFADGGKTPDPKMNARTYMDVMREQHLTKEEREIRQQLAEKAKAGELKVVNGAAASQPPSKRKRRWDQTADQTPGATPKKLSSWDQAETPGHTPSLRWDETPGRAKGSETPGATPGSKIWDPTPSHTPAGAATPGRGDTPGHATPGHGGATSSARKNRWDETPKTERDTPGHGSGWAETPRTDRGGDSIGETPTPGASKRKSRWDETPASQMGGSTPVLTPGKTPIGTPAMNMATPTPGHIMSMTPEQLQAWRWEREIDERNRPLSDEELDAMFPEGYKVLPPPAGYVPIRTPARKLTATPTPLGGMTGFHMQTEDRTMKSVNDQPSGNLPFLKPDDIQYFDKLLVDVDESTLSPEEQKERKIMKLLLKIKNGTPPMRKAALRQITDKAREFGAGPLFNQILPLLMSPTLEDQERHLLVKVIDRILYKLDDLVRPYVHKILVVIEPLLIDEDYYARVEGREIISNLAKAAGLATMISTMRPDIDNMDEYVRNTTARAFAVVASALGIPSLLPFLKAVCKSKKSWQARHTGIKIVQQIAILMGCAILPHLRSLVEIIEHGLVDEQQKVRTISALAIAALAEAATPYGIESFDSVLKPLWKGIRQHRGKGLAAFLKAIGYLIPLMDAEYANYYTREVMLILIREFQSPDEEMKKIVLKVVKQCCGTDGVEANYIKTEILPPFFKHFWQHRMALDRRNYRQLVDTTVELANKVGAAEIISRIVDDLKDEAEQYRKMVMETIEKIMGNLGAADIDHKLEEQLIDGILYAFQEQTTEDSVMLNGFGTVVNALGKRVKPYLPQICGTVLWRLNNKSAKVRQQAADLISRTAVVMKTCQEEKLMGHLGVVLYEYLGEEYPEVLGSILGALKAIVNVIGMHKMTPPIKDLLPRLTPILKNRHEKVQENCIDLVGRIADRGAEYVSAREWMRICFELLELLKAHKKAIRRATVNTFGYIAKAIGPHDVLATLLNNLKVQERQNRVCTTVAIAIVAETCSPFTVLPALMNEYRVPELNVQNGVLKSLSFLFEYIGEMGKDYIYAVTPLLEDALMDRDLVHRQTASAVVQHMSLGVYGFGCEDSLNHLLNYVWPNVFETSPHVIQAVMGALEGLRVAIGPCRMLQYCLQGLFHPARKVRDVYWKIYNSIYIGSQDALIAHYPRIYNDDKNTYIRYDLDYIL | binds

Results are given in words; binding and its absence hold for the method and conditions named. In cells and extracts the contact can be indirect. A yes stands for co-enrichment or nearness to the bait. Other partners may have been found.
